# At least one compound was matched to its structure with a doubt left.
# System: A549 cells
# Assay: Cell growth inhibitory activity using A549 cells (Test Example 6)
# Format: cell-based, Human
# Conditions: as compared with Example 261 or Example 269 described in WO 03/00660
# Protocol: Human lung cancer epithelial cells (A549) (available from ATCC) were suspended to a concentration of 3 × 10^4/ml in a DMEM/F12 medium containing 10%FCS, and the suspension was inoculated in 100 µl portions in wells of a 96-well plate. On the following day, a stock solution of the test compound which had been adjusted to 10 mM with DMSO was adjusted with a serum-free DMEM/F12 medium to a dose (60 µM) which was twice the evaluation concentration. After removing the medium inoculated in the 96 wells on the previous day, the solution was added in 50 µl portions to the plate. Next, a DMEM/F12 medium containing 10% serum was added in 50 µl portions to the wells, followed by culturing at 37°C for 40 hr. The final concentration of the serum and the concentration of the evaluation compound were 5% and 30 µM, respectively. […]
# After 40 hr, the culture was removed, and 100 µl of a solution prepared by diluting counting kit-8 (purchased from Dojindo) with a serum-free F12 medium by 10 times was added, followed by culturing at 37°C for 20 to 30 min. After the confirmation of suitable color development, the absorbance at 450 nm was measured with ARVO (purchased from Wallach Bethold Japan). The cell growth inhibition in the test compound added wells were determined by presuming the absorbance value in the test compound-free wells to be 0% and the absorbance value in the cell-free wells to be 100%.
smiles,measurement,value
"CCc1ccc(Oc2ccnc3ccc(OC(C)=O)cc23)c(-c2ccccn2)n1 [Compound 186, 4-(6-Ethyl-[2,2']bipyridinyl-3-yloxy)-quinolin-6-ylacetate]",inhibitory activity against cell growth or BMP4 signals,reduced inhibitory activity

# — patent publication EP1724268A1, “COMPOUND HAVING TGF-BETA INHIBITORY ACTIVITY AND PHARMACEUTICAL COMPOSITION CONTAINING SAME” (KIRIN BEER KABUSHIKI KAISHA, priority 2004, dated 2005)
